{
  "source": "the supplement of paper PMC8728848",
  "assay_in_all_cases": "glycan array binding signal (z-score within array); higher = stronger binding",
  "settings_in_all_cases": "glycan notation: IUPAC condensed, linker removed",
  "key": {"[1]": {"target": "Neu5Ac(a2-6)Gal(b1-4)GlcNAc(b1-2)Man(a1-3)[Neu5Ac(a2-3)Gal(b1-4)GlcNAc(b1-2)Man(a1-6)]Man(b1-4)GlcNAc(b1-4)GlcNAc", "method_in_brief": "(§1)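 The binding signal is a Z-score computed within each array. Data were drawn from 3228 arrays in the Consortium for Functional Glycomics database, restricted to those with a known protein sequence. Scores were averaged over arrays of the same protein sequence at different concentrations or buffers, and over linkers, and negative values can be taken as non-binding.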"}, "[2]": {"target": "Neu5Ac(a2-6)Gal(b1-4)GlcNAc(b1-2)Man(a1-3)[Neu5Ac(a2-6)Gal(b1-4)GlcNAc(b1-2)Man(a1-6)]Man(b1-4)GlcNAc(b1-4)GlcNAc", "method_in_brief": "as §1"}, "[3]": {"target": "Neu5Ac(a2-6)Gal(b1-4)GlcNAc(b1-2)Man(a1-3)[Neu5Ac(a2-6)Gal(b1-4)GlcNAc(b1-2)Man(a1-6)]Man(b1-4)GlcNAc(b1-4)[Fuc(a1-6)]GlcNAc", "method_in_brief": "as §1"}, "[4]": {"target": "Neu5Ac(a2-6)Gal(b1-4)GlcNAc(b1-2)Man(a1-6)Man(b1-4)GlcNAc(b1-4)GlcNAc", "method_in_brief": "as §1"}, "[5]": {"target": "Neu5Ac(a2-6)Gal(b1-4)GlcNAc(b1-2)Man(a1-6)[Gal(b1-4)GlcNAc(b1-2)Man(a1-3)]Man(b1-4)GlcNAc(b1-4)GlcNAc", "method_in_brief": "as §1"}, "[6]": {"target": "Neu5Ac(a2-6)Gal(b1-4)GlcNAc(b1-2)Man(a1-6)[GlcNAc(b1-2)Man(a1-3)]Man(b1-4)GlcNAc(b1-4)GlcNAc", "method_in_brief": "as §1"}, "[7]": {"target": "Neu5Ac(a2-6)Gal(b1-4)GlcNAc(b1-2)Man(a1-6)[Man(a1-3)]Man(b1-4)GlcNAc(b1-4)GlcNAc", "method_in_brief": "as §1"}, "[8]": {"target": "Neu5Ac(a2-6)Gal(b1-4)GlcNAc(b1-2)[Neu5Ac(a2-6)Gal(b1-4)GlcNAc(b1-4)]Man(a1-3)[GlcNAc(b1-4)][Neu5Ac(a2-6)Gal(b1-4)GlcNAc(b1-2)[Neu5Ac(a2-6)Gal(b1-4)GlcNAc(b1-6)]Man(a1-6)]Man(b1-4)GlcNAc(b1-4)GlcNAc", "method_in_brief": "as §1"}, "[9]": {"target": "Neu5Ac(a2-6)Gal(b1-4)GlcNAc(b1-2)[Neu5Ac(a2-6)Gal(b1-4)GlcNAc(b1-4)]Man(a1-3)[GlcNAc(b1-4)][Neu5Ac(a2-6)Gal(b1-4)GlcNAc(b1-4)Man(a1-6)]Man(b1-4)GlcNAc(b1-4)GlcNAc", "method_in_brief": "as §1"}, "[10]": {"target": "Neu5Ac(a2-6)Gal(b1-4)GlcNAc(b1-2)[Neu5Ac(a2-6)Gal(b1-4)GlcNAc(b1-6)]Man(a1-6)[Neu5Ac(a2-6)Gal(b1-4)GlcNAc(b1-2)Man(a1-3)][GlcNAc(b1-4)]Man(b1-4)GlcNAc(b1-4)GlcNAc", "method_in_brief": "as §1"}, "[11]": {"target": "Neu5Ac(a2-6)Gal(b1-4)GlcNAc(b1-3)Gal(b1-3)GlcNAc", "method_in_brief": "as §1"}, "[12]": {"target": "Neu5Ac(a2-6)Gal(b1-4)GlcNAc(b1-3)Gal(b1-4)GlcNAc", "method_in_brief": "as §1"}, "[13]": {"target": "Neu5Ac(a2-6)Gal(b1-4)GlcNAc(b1-3)Gal(b1-4)GlcNAc(b1-2)Man(a1-3)[Neu5Ac(a2-6)Gal(b1-4)GlcNAc(b1-3)Gal(b1-4)GlcNAc(b1-2)Man(a1-6)]GalNAc", "method_in_brief": "as §1"}, "[14]": {"target": "Neu5Ac(a2-6)Gal(b1-4)GlcNAc(b1-3)Gal(b1-4)GlcNAc(b1-3)Gal(b1-4)GlcNAc", "method_in_brief": "as §1"}, "[15]": {"target": "Neu5Ac(a2-6)Gal(b1-4)GlcNAc(b1-3)Gal(b1-4)GlcNAc(b1-3)Gal(b1-4)GlcNAc(b1-2)Man(a1-3)[Neu5Ac(a2-6)Gal(b1-4)GlcNAc(b1-3)Gal(b1-4)GlcNAc(b1-3)Gal(b1-4)GlcNAc(b1-2)Man(a1-6)]GalNAc", "method_in_brief": "as §1"}, "[16]": {"target": "Neu5Ac(a2-6)Gal(b1-4)GlcNAc(b1-3)Gal(b1-4)GlcNAc(b1-3)GalNAc", "method_in_brief": "as §1"}, "[17]": {"target": "Neu5Ac(a2-6)Gal(b1-4)GlcNAc(b1-3)Gal(b1-4)GlcNAc(b1-3)[Neu5Ac(a2-6)Gal(b1-4)GlcNAc(b1-3)Gal(b1-4)GlcNAc(b1-6)]GalNAc", "method_in_brief": "as §1"}, "[18]": {"target": "Neu5Ac(a2-6)Gal(b1-4)GlcNAc(b1-3)Gal(b1-4)GlcNAc(b1-6)[Gal(b1-3)]GalNAc", "method_in_brief": "as §1"}, "[19]": {"target": "Neu5Ac(a2-6)Gal(b1-4)GlcNAc(b1-3)Gal(b1-4)[Fuc(a1-3)]GlcNAc(b1-3)Gal(b1-4)[Fuc(a1-3)]GlcNAc", "method_in_brief": "as §1"}, "[20]": {"target": "Neu5Ac(a2-6)Gal(b1-4)GlcNAc(b1-3)GalNAc", "method_in_brief": "as §1"}, "[21]": {"target": "Neu5Ac(a2-6)Gal(b1-4)GlcNAc(b1-3)[Neu5Ac(a2-6)Gal(b1-4)GlcNAc(b1-6)]GalNAc", "method_in_brief": "as §1"}, "[22]": {"target": "Neu5Ac(a2-6)Gal(b1-4)GlcNAc(b1-6)GalNAc", "method_in_brief": "as §1"}, "[23]": {"target": "Neu5Ac(a2-6)Gal(b1-4)GlcNAc(b1-6)[Gal(b1-3)GlcNAc(b1-3)]Gal(b1-4)Glc", "method_in_brief": "as §1"}, "[24]": {"target": "Neu5Ac(a2-6)Gal(b1-4)GlcNAc(b1-6)[Gal(b1-3)]GalNAc", "method_in_brief": "as §1"}, "[25]": {"target": "Neu5Ac(a2-6)Gal(b1-4)GlcNAc6S", "method_in_brief": "as §1"}, "Neu5Ac(a2-6)GalNAc": {"target": "Neu5Ac(a2-6)GalNAc", "method_in_brief": "as §1"}, "[26]": {"target": "Neu5Ac(a2-6)GalNAc(b1-4)GlcNAc", "method_in_brief": "as §1"}, "[27]": {"target": "Neu5Ac(a2-6)GalNAc(b1-4)GlcNAc6S", "method_in_brief": "as §1"}, "[28]": {"target": "Neu5Ac(a2-6)GlcNAc(b1-4)GlcNAc", "method_in_brief": "as §1"}, "[29]": {"target": "Neu5Ac(a2-6)GlcNAc(b1-4)GlcNAc(b1-4)GlcNAc", "method_in_brief": "as §1"}},
  "note": "Some of the results follow.",
  "data": [
    {"binder": "Agalectin (Anopheles gambiae) (protein) MSNRPFTAKFPRYPENGDEVFIRGKLKDDAKSFSVNFCLPRPAQVAEHQTPPYIALHFKTIYDERDDTSRVVLNWKNLQWQQEEVLDNYWHVDRSQTFRVVFRLHEDCIKVFVNSVDHPPDYQFPVQLPLDQIESIELWDDVEHVEEISFRYDNGNSY", "values": [
      {"measurement": "glycan array binding signal (z-score)", "setting": "[1]", "value": -0.49},
      {"measurement": "glycan array binding signal (z-score)", "setting": "[2]", "value": -0.355},
      {"measurement": "glycan array binding signal (z-score)", "setting": "[3]", "value": 5.84},
      {"measurement": "glycan array binding signal (z-score)", "setting": "[4]", "value": 0.632},
      {"measurement": "glycan array binding signal (z-score)", "setting": "[5]", "value": 0.911},
      {"measurement": "glycan array binding signal (z-score)", "setting": "[6]", "value": 0},
      {"measurement": "glycan array binding signal (z-score)", "setting": "[7]", "value": 0.592},
      {"measurement": "glycan array binding signal (z-score)", "setting": "[8]", "value": -0.174},
      {"measurement": "glycan array binding signal (z-score)", "setting": "[9]", "value": -0.59},
      {"measurement": "glycan array binding signal (z-score)", "setting": "[10]", "value": -1.09},
      {"measurement": "glycan array binding signal (z-score)", "setting": "[11]", "value": -0.752},
      {"measurement": "glycan array binding signal (z-score)", "setting": "[12]", "value": 0.757},
      {"measurement": "glycan array binding signal (z-score)", "setting": "[13]", "value": -0.295},
      {"measurement": "glycan array binding signal (z-score)", "setting": "[14]", "value": -0.576},
      {"measurement": "glycan array binding signal (z-score)", "setting": "[15]", "value": 2.96},
      {"measurement": "glycan array binding signal (z-score)", "setting": "[16]", "value": 0.187},
      {"measurement": "glycan array binding signal (z-score)", "setting": "[17]", "value": 1.94},
      {"measurement": "glycan array binding signal (z-score)", "setting": "[18]", "value": 0.185},
      {"measurement": "glycan array binding signal (z-score)", "setting": "[19]", "value": -0.26},
      {"measurement": "glycan array binding signal (z-score)", "setting": "[20]", "value": -0.455},
      {"measurement": "glycan array binding signal (z-score)", "setting": "[21]", "value": -0.501},
      {"measurement": "glycan array binding signal (z-score)", "setting": "[22]", "value": 1.29},
      {"measurement": "glycan array binding signal (z-score)", "setting": "[23]", "value": -0.439},
      {"measurement": "glycan array binding signal (z-score)", "setting": "[24]", "value": 1.88},
      {"measurement": "glycan array binding signal (z-score)", "setting": "[25]", "value": -1.2},
      {"measurement": "glycan array binding signal (z-score)", "setting": "Neu5Ac(a2-6)GalNAc", "value": -0.753},
      {"measurement": "glycan array binding signal (z-score)", "setting": "[26]", "value": -0.735},
      {"measurement": "glycan array binding signal (z-score)", "setting": "[27]", "value": -0.365},
      {"measurement": "glycan array binding signal (z-score)", "setting": "[28]", "value": 0.207},
      {"measurement": "glycan array binding signal (z-score)", "setting": "[29]", "value": -0.452}
    ]}
  ]
}
